Where “and” joins values, the source holds several entries; their conditions need not be identical. Equal entries are not always repeated. The whole screen tested about 400,000 compounds, of which about 5,500 (1.4%) were called active. This list was built around the results that the source calls inconclusive (neither active nor inactive); the mix of calls is not that of the screen. The call rests on the fitted dose curve; in most records, active means well fitted cell-killing curve with a large enough effect; inconclusive means small, poorly fitted or top-dose-only effect, or effect the other way; inactive means flat fitted curve, though single readings scatter. A potency beside an inconclusive call is a rough fit, not a confirmed value.
Test: qHTS assay for MDR1-selective chemotherapeutics: Primary screen using the parental adenocarcinoma cell KB-3-1; further: nearly all actives have a fitted effect of over 60% in size
Conditions: KB-3-1 viability, CellTiter-Glo ATP luminescence, 72 h; activity change, negative = cytotoxic: at 46.1 µM (top of the series)
How it was run: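 Screening of KB-3-1 cells (DMEM, 10% FBS, phenol-red free) ran from lowest to highest compound concentration; after 72 h at 37 °C viability was read luminescently and curves fitted.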
On the % scale 0 is the no-effect control and ±100 the full control effect; potency means the concentration at half of the fitted maximal effect.

Question: Which Potency does the source give for `O=c1c2ccccc2ncn1-c1ccccc1F` here?
Answer: The Potency was inconclusive: 32.6 µM [rising, single point].

Question: With `Clc1ccc(SCc2cn3ccsc3n2)cc1` as the compound, how does the Potency read?
Answer: The Potency was “inactive”.

Question: With `O=c1c2nncn2ccn1-c1ccc(F)c(F)c1` as the compound, how does the Potency read?
Answer: Its Potency is “inactive”.

Question: With `CN(C)CCC1c2ccc(Cl)cc2CCc2cccnc21` (centres undefined) (tested in a mixture with another compound) as the compound, how does the Potency read?
Answer: The Potency was inconclusive: 29.1 µM [cytotoxic, single point].

Question: With `O=S(=O)(c1cccs1)N1CCN(CC(O)COc2cccc(Br)c2)CC1` (centres undefined) as the compound, how does the Potency read?
Answer: The Potency was inconclusive: 23.1 µM [cytotoxic, single point].

Question: For `Cc1ccc(NC(=O)COC(=O)C2(C)CC2(Cl)Cl)cc1S(=O)(=O)N1CCOCC1` (centres undefined), which Potency is on record?
Answer: Its Potency is “inactive”.

Question: With `O=C(N/N=C/c1ccc(-c2ccccc2Cl)o1)c1ccccc1` as the compound, how does the Potency read?
Answer: The Potency was inconclusive: 20.6 µM [cytotoxic, single point].

Question: Which Potency does the source give for `CCOC(=O)C1(Cc2cccc(Cl)c2)CCCN(C(=O)c2ccco2)C1` (centres undefined) here?
Answer: The Potency was “inactive”.

Question: With `COc1ccc(OC)c(NC(=O)CS(=O)(=O)Cc2nc(-c3ccc(C)cc3)oc2C)c1` as the compound, how does the Potency read?
Answer: Its Potency is “inactive”.

Question: Which Potency does the source give for `Cc1sc2ncnc(SCC(=O)NC3CC3)c2c1C` here?
Answer: The Potency was “inactive”.

Question: With `O=C(Nc1nc2cc3c(cc2s1)OCCO3)c1cccs1` as the compound, how does the Potency read?
Answer: The Potency was inconclusive: 29.1 µM [cytotoxic, single point].

Question: For `CCC(=O)c1ccc(OCC(O)CN2CCN(C(c3ccccc3)c3ccccc3)CC2)cc1` (centres undefined), which Potency is on record?
Answer: The Potency was inconclusive: 25.9 µM [cytotoxic, single point].

Question: Which Potency does the source give for `CC(C)N1C(=O)/C(=C/c2nc3ccccc3c(=O)n2-c2ccccc2)c2ccccc21` here?
Answer: Its Potency is inconclusive: 32.6 µM [cytotoxic, single point].

Question: For `CCOC(=O)C1CCCN(c2nc3c(C)cccn3c(=O)c2/C=C(\C#N)C(=O)NCc2ccco2)C1` (centres undefined), which Potency is on record?
Answer: Its Potency is “inactive”.

Question: Which Potency does the source give for `Cc1ccc(C2=NN(C(=O)CCl)C(c3cccs3)C2)o1` (centres undefined) here?
Answer: The Potency was inconclusive: 18.4 µM [cytotoxic, single point].

Question: For `COC(=O)c1ccc(CSc2cc(C)c3cccc(C)c3n2)o1`, which Potency is on record?
Answer: The Potency was “inactive”.

Question: Which Potency does the source give for `O=C(CCc1ccccc1)NNC(=O)c1ccccc1C(=O)O` here?
Answer: Its Potency is inconclusive: 23.1 µM [rising, partial curve, poor fit].

Question: Which Potency does the source give for `Nc1nc(CN2CCN(c3ccccc3F)CC2)nc(Nc2ccc3c(c2)OCCO3)n1` here?
Answer: Its Potency is inconclusive: 29.1 µM [cytotoxic, single point].

Question: For `O=C1CCSc2ccc(S(=O)(=O)Nc3cccc(C(F)(F)F)c3)cc2N1`, which Potency is on record?
Answer: The Potency was inconclusive: 32.6 µM [cytotoxic, single point].

Question: Which Potency does the source give for `Cc1cc([N+](=O)[O-])nn1Cc1ccc(C(=O)N/N=C/c2ccc(O)cc2O)cc1` here?
Answer: The Potency was inconclusive: 18.4 µM [cytotoxic, single point].

Question: With `COc1ccc(C(=O)NCCNC(=O)c2ccc(OC)cc2)cc1` as the compound, how does the Potency read?
Answer: The Potency was inconclusive: 25.9 µM [rising, single point].

Question: Which Potency does the source give for `C=CCc1cccc(/C=N/NC(=O)c2ccc3nc[nH]c3c2)c1O` here?
Answer: The Potency was inconclusive: 25.9 µM [cytotoxic, partial curve, poor fit].

Question: For `CCN1C(=O)[C@H]2[C@@H](c3ccc(C)cc3)N3C(=O)N(c4ccc(C(F)(F)F)cc4)C(=O)[C@@]3(CC(C)C)[C@H]2C1=O`, which Potency is on record?
Answer: Its Potency is inconclusive: 8.2 µM [cytotoxic, partial curve].

Question: For `O=S(=O)(NCCCCCNS(=O)(=O)c1c(F)cccc1F)c1ccc2c(c1)OCCO2`, which Potency is on record?
Answer: Its Potency is “inactive”.

Question: Which Potency does the source give for `C=C[C@@H]1c2ccccc2N(S(=O)(=O)c2ccc(C)cc2)[C@H](c2ccc(OC(C)=O)cc2)C1(C#N)C#N` here?
Answer: The Potency was inconclusive: 29.1 µM [cytotoxic, single point] and active: 18.4 µM.

Question: For `CCOC(=O)C1(Cc2ccccc2C(F)(F)F)CCN(C2CCN(C(C)C)CC2)CC1`, which Potency is on record?
Answer: The Potency was “inactive”.

Question: With `CN1CCN(c2ccc(Cl)cc2NC(=O)c2ccc(S(=O)(=O)N3CCCCCC3)cc2)CC1` as the compound, how does the Potency read?
Answer: Its Potency is inconclusive: 29.1 µM [cytotoxic, single point].

Question: For `O=C(CSc1nc(O)c(Cc2ccccc2)c(=O)[nH]1)c1ccccc1`, which activity change, negative = cytotoxic is on record?
Answer: The activity change, negative = cytotoxic was inconclusive: -31.2% [cytotoxic].

Question: Which Potency does the source give for `CCOC(=O)C1(C)CCN1C(=O)c1cccs1` (centres undefined) here?
Answer: The Potency was “inactive”.

Question: With `COc1ccc(NS(=O)(=O)c2cc(NC(=O)C3CC3)ccc2N2CCCCC2)cc1` as the compound, how does the Potency read?
Answer: The Potency was inconclusive: 20.6 µM [cytotoxic, single point].

Question: For `Cc1ccc(-n2c(CCc3nc4ccccc4[nH]3)n[nH]c2=S)cc1`, which Potency is on record?
Answer: The Potency was “inactive”.

Question: For `COc1cccc(S(=O)(=O)Nc2ccc3c(c2)OCCO3)c1`, which Potency is on record?
Answer: Its Potency is “inactive”.

Question: With `CCN(CC)CCNCC(O)(c1ccc(Cl)cc1)c1ccc(Cl)cc1` as the compound, how does the Potency read?
Answer: The Potency was “inactive”.

Question: Which Potency does the source give for `CC1=CC(C)[C@H](/C=N/n2c(=O)[nH]c3c([nH]c4ccc(Br)cc43)c2=O)C(C)C1` (some centres undefined) here?
Answer: Its Potency is inconclusive: 29.1 µM [cytotoxic, single point].

Question: With `CN(C)C(=S)N=Nc1[nH]c2ccccc2c1O` as the compound, how does the Potency read?
Answer: The Potency was “inactive”.

Question: With `Cc1ccccc1NC(=S)N/N=C1\CC(C)(C)Oc2ccc(O)cc21` as the compound, how does the Potency read?
Answer: The Potency was inconclusive: 29.1 µM [cytotoxic, single point].

Question: With `CSCC[C@H](NC(=O)c1cccc(S(=O)(=O)N2CCCCCC2)c1)c1nc2ccccc2[nH]1` as the compound, how does the Potency read?
Answer: Its Potency is inconclusive: 14.6 µM [cytotoxic, partial curve].

Question: For `COc1cc(N2CCCC2)c(OC)cc1/C=C(/C#N)c1cccc(F)c1`, which Potency is on record?
Answer: Its Potency is inconclusive: 14.6 µM [cytotoxic, partial curve, poor fit].

Question: Which Potency does the source give for `Cc1c(C(=O)NCCc2ccc(S(N)(=O)=O)cc2)sc2nc3n(c(=O)c12)CCCC3` here?
Answer: Its Potency is “inactive”.

Question: Which Potency does the source give for `Cc1ccc(-n2cc(CN3CCC(O)(c4ccccn4)CC3)c(-c3ccc(F)cc3)n2)cc1` here?
Answer: The Potency was “inactive”.

Question: With `CCOc1ccc(S(=O)(=O)NCc2ccccn2)cc1NC(=O)c1ccccc1` as the compound, how does the Potency read?
Answer: Its Potency is active: 2.31 µM.

Question: Which Potency does the source give for `COc1ccc(OC)c(NC(=O)CCCNC(=O)Cn2cnc3sc(C)c(C)c3c2=O)c1` here?
Answer: The Potency was inconclusive: 1.64 µM [rising, full curve, poor fit].

Question: For `O=C(N/N=C/c1cc(Br)c(Br)s1)c1ccncc1`, which Potency is on record?
Answer: Its Potency is inconclusive: 20.6 µM [cytotoxic, single point].

Question: With `CCc1ccccc1OCC(=O)Nc1ccc(C)c(S(=O)(=O)N2CCCCCC2)c1` as the compound, how does the Potency read?
Answer: Its Potency is active: 18.4 µM.
